Measured values from patent US5750499A (The Salk Institute for Biological Studies, priority 1995, dated 1998).

What was measured:
[1] = general procedure: Boc solid-phase peptide synthesis; chloromethylated resin (styrene, 1-2% divinylbenzene; 0.5 to 2 mmol Cl/g); DCC; conditions: whole synthesis, HPLC and CZE
[2] = general procedure: Boc solid-phase peptide synthesis; chloromethylated resin; DCC; conditions: whole synthesis, capillary zone electrophoresis

Substance	final HPLC purity [1]	final purity (method not given) [2]
PEPTIDE1{C.F.F.[dW].[IAmp].T.F.C}$PEPTIDE1,PEPTIDE1,1:R3-8:R3$$$V2.0	greater than 97%	
PEPTIDE1{C.K.F.F.[dW].[IAmp].T.F.T.S.C}$PEPTIDE1,PEPTIDE1,1:R3-11:R3$$$V2.0		greater than 97%
PEPTIDE1{C.K.F.F.[dW].[IAmp].T.F.T.[dS].C}$PEPTIDE1,PEPTIDE1,1:R3-11:R3$$$V2.0	greater than 97%	

Strings that start with PEPTIDE1 are HELM notation: dots part the residues, brackets hold end groups and non-standard residues. The same purity stands for every peptide and may come from a single statement.
